From publication PMC3765826
These are yes or no findings as the source states them, for the method shown.

Target: T1, OsMPK3 (rice (Oryza sativa)) (UniProt Q10N20)
T1 sequence: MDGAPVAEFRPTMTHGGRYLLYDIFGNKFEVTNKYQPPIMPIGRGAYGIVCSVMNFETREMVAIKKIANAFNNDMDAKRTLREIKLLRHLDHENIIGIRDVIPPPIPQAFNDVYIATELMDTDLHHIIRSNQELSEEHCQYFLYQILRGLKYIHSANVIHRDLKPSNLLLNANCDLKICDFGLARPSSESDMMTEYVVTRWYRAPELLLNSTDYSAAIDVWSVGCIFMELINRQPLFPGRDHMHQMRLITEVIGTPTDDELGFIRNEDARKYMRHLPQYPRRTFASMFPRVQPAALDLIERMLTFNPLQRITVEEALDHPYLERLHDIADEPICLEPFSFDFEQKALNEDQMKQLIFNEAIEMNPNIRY
Test: two-hybrid; one to one, pGADT7 and pGBKT7 constructs co-transformed in yeast AH109; selected on DDO, interaction checked by growth on QDO (SD-trp-leu-ade-his) at 30°C

B1: OsMPK17-1 (protein, UniProt Q5Z9J0 1-580)
chain: MGGGGTLVDGFRRLFHRRTASGSNQSSNAGEEAASSDLEVADDPDLVALRSIRIRVPKRKMPLPVESHKKNTVEMEFFTEYGEASQYQIQEVIGKGSYGVVAAAVDTRTGERVAIKKINDVFEHVSDATRILREIKLLRLLRHPDIVEIKHIMLPPSRREFQDIYVVFELMESDLHQVIRANDDLTPEHYQFFLYQLLRALKYIHAANVFHRDLKPKNILANSDCKLKICDFGLARASFNDAPSAIFWTDYVATRWYRAPELCGSFFSKYTPAIDIWSIGCIFAELLTGRPLFPGKNVVHQLDIITDLLGTPSSETLSRIRNEKARRYLSTMRKKHAVPFSQKFRNTDPLALRLLERLLAFDPKDRSSAEEALADPYFASLANVEREPSRHPISKLEFEFERRKLTKDDVRELIYREILEYHPQMLQEYMKGGEQISFLYPSGVDRFKRQFAHLEENYSKGERGSPLQRKHASLPRERVGVSKDGYNQQNTNDQERSADSVARTTVSPPMSQDAQQHGSAGQNGVTSTDLSSRSYLKSASISASKCVAVKDNKEPEDDYISEEMEGSVDGLSEQVSRMHS
  binding: no binding
